# Some entries share one result that the patent states for a list of compounds.
# The chains behind the UniProt entries cited, without tags or fusion partners.
# UniProt P09874, whole entry: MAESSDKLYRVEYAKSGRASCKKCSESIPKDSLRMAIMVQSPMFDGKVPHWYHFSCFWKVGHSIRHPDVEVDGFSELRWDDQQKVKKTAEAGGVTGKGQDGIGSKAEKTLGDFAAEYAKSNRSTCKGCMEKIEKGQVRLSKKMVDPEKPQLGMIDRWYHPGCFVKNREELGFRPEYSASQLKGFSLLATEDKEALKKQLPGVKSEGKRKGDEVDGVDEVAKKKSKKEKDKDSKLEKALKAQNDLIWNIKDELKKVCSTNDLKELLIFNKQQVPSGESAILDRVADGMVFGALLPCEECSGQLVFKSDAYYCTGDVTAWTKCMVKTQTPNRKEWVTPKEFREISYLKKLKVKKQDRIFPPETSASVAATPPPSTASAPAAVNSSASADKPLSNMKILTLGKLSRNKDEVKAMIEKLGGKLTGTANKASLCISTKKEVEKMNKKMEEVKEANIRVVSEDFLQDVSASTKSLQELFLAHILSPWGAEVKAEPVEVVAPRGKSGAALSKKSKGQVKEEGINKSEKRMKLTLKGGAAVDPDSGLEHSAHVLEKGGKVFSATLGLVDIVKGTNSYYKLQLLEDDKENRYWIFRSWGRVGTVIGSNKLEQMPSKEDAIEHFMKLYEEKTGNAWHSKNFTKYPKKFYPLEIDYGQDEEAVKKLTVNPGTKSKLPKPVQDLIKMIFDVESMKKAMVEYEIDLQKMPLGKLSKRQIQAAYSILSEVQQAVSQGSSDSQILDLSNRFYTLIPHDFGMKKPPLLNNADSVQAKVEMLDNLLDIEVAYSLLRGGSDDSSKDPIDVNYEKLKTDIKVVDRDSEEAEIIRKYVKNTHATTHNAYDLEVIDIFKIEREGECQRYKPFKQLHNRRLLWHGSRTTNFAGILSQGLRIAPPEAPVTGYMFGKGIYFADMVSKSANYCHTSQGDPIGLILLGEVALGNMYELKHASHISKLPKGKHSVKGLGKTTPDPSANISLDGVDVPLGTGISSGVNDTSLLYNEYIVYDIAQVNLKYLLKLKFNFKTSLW
# Assays:
# [1] = target: T1, PARP-1 (Homo sapiens, UniProt P09874); assay: in vitro fluorescence polarization DNA competition assay; details: 25 μM compound; PARP-1 40 nM; nicked dumbbell DNA probe 20 nM
# [2] = target: T1, PARP-1; assay: fluorescence polarization DNA binding affinity assay; details: 5 μM inhibitor; compared to DMSO control
SMILES,exchange of the PARP-1:labled DNA complex with an unlabeled DNA competitor [1],effect on the affinity of PARP-1 for nicked DNA [2]
"O=C(c1cc(Cc2n[nH]c(=O)c3ccccc23)ccc1F)N1CCn2c(nnc2C(F)(F)F)C1 [Pip3, 4-(4-Fluoro-3-(3-(trifluoromethyl)-5,6,7,8-tetrahydro-[1,2,4]triazolo[4,3-a]pyrazine-7-carbonyl)benzyl) phthalazin-1(2H)-one]","reduced, to varying degrees",–
"CC(C)c1nnc2n1CCN(C(=O)c1cc(Cc3n[nH]c(=O)c4ccccc34)ccc1F)C2 [Pip4, 4-(4-Fluoro-3-(3-isopropyl-5,6,7,8-tetrahydro-[1,2,4]triazolo[4,3-a]pyrazine-7-carbonyl)benzyl) phthalazin-1(2H)-one]","reduced, to varying degrees",increased the affinity of PARP-1 for nicked DNA
"CC(F)(F)c1nnc2n1CCN(C(=O)c1cc(Cc3n[nH]c(=O)c4ccccc34)ccc1F)C2 [Pip5, 4-(4-Fluoro-3-(3-(1,1-difluoroethyl)-5,6,7,8-tetrahydro-[1,2,4]triazolo[4,3-a]pyrazine-7-carbonyl)benzyl)phthalazin-1(2H)-one]","reduced, to varying degrees",increased the affinity of PARP-1 for nicked DNA
"C[C@H]1Cn2c(nnc2C(C)(F)F)CN1C(=O)c1cc(Cc2n[nH]c(=O)c3ccccc23)ccc1F [Pip6, (S)-4-(3-(3-(1,1-difluoroethyl)-6-methyl-5,6,7,8-tetrahydro-[1,2,4]triazolo[4,3-a]pyrazine-7-carbonyl)-4-fluorobenzyl)phthalazin-1(2H)-one]","reduced, to varying degrees",increased the affinity of PARP-1 for nicked DNA
